# Columns and labels:
# [1] = pH control in a 200 gallon mini-pool with electrolytic chlorination and metered ZnCl2 addition
# [2] = pH time response of simulated pool water in a 6 L vessel with an operating DuoClear 15 electrolytic chlorinator
smiles,measurement,setting,value
[Cl-].[Cl-].[Zn+2] [zinc chloride],pH drop after ZnCl2 pump turned off,"[1]; after 125 minutes elapsed, ZnCl2 pump off, chlorination continued",0.02 units
same,pH increase,"[1]; chlorination 2 g/hr plus continuous metered 25 mM ZnCl2 at 1.2 liters/hr, over 125 minutes with metering pump operating",no pH increase
same,pH increase after ZnCl2 pump turned off,"[1]; over a 200 minute period after ZnCl2 pump off, excess ZnCl2 consumed",0.35 units
same,net increase in pH,"[2]; 12.2 mM aqueous solution via peristaltic pump at 10.5 ml/min, over 60 minutes of operation",about 0.8 pH units
same,pH increase,"[2]; 25 mM solution at 10.2 ml/min, over 60 minutes of operation",about 0.2 pH units
same,initial pH after zinc chloride addition and mixing,"[2]; 6.28 g batch addition, mixed overnight, pH before addition 7.9",6.0
same,increase in pH,"[2]; 6.28 g zinc chloride one-time batch addition to 6 L conditioned water, mixed overnight, over 60 minutes of chlorinator operation",approximately 1.25 pH units

# — patent US20090223903A1, “METHODS AND APPARATUSES FOR C[…] WATER” (priority 2007, published 2009)
